No constants are given. Whether binding was seen depends on the method and setting. Some results given as binding are weak or reduced against the parent protein; the word gives no strength. For some assays here: Tags and fused reporters may be left off the sequences shown.

The chains behind the UniProt entries cited, without tags or fusion partners. Where a name states a change or a piece, a line headed by the entry shows the natural chain unless it says otherwise. A line that says so, or that is headed by a name, gives the form on record, which may keep a tag or linker.
VEGF-GAD (Vascular Endothelial Growth Factor fused to the GAL4 activation domain, in pACTSfiI) (P15692, form named): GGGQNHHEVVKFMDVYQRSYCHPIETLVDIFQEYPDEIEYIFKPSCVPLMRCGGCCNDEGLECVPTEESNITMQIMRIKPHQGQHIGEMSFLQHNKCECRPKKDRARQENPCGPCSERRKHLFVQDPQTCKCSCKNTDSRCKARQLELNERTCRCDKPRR
UniProt P04386: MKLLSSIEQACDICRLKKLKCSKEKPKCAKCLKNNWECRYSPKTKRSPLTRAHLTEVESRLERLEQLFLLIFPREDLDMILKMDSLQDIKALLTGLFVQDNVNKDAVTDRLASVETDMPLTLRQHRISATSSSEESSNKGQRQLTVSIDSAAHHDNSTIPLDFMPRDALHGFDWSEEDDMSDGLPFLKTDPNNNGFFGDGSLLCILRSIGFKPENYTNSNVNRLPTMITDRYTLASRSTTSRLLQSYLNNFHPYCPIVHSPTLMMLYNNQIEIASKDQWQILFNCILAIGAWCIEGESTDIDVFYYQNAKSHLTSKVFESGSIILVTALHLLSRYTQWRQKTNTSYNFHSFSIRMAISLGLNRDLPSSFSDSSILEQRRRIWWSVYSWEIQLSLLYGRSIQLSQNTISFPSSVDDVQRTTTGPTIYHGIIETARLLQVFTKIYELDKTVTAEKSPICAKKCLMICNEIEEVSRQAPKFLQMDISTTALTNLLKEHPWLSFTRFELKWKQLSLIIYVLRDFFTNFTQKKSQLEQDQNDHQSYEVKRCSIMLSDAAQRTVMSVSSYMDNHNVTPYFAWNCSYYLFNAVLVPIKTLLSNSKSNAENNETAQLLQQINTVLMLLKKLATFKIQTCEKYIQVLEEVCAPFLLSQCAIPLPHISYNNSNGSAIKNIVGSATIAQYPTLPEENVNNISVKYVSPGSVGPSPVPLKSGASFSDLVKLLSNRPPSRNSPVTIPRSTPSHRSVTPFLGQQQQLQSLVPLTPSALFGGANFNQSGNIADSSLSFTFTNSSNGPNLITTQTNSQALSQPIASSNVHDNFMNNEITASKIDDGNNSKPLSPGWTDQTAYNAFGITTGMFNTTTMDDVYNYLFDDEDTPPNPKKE

The results in this text go back to patent publication US20030119002A1.

Test [1] addresses T1, SNF4-GAD (SNF4 fused to the GAL4 activation domain, plasmid pSE1111) (Saccharomyces cerevisiae) (UniProt P12904).
T1 sequence (looked up): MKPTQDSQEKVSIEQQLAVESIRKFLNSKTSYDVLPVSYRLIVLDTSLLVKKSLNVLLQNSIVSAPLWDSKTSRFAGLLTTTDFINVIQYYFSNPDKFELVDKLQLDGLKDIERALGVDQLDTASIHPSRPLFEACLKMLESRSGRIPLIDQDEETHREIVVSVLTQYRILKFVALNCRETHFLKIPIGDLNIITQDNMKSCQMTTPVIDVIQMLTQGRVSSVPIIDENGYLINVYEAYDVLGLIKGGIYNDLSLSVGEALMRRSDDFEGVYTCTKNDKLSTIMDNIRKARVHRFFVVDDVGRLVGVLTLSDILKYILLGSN
The experiment in a line: yeast two-hybrid mating assay, HIS3 reporter with 3-AT.

Test [2] addresses VEGF-GAD (Vascular Endothelial Growth Factor fused to the GAL4 activation domain, in pACTSfiI) (Saccharomyces cerevisiae) (UniProt P15692). Kind of test: yeast two-hybrid mating assay, URA3 and HIS3 reporters with 3-AT.

For “SNF1-GBD (SNF1 fused to the GAL4 DNA-binding domain, plasmid pSE1112) (from UniProt P04386 1-147; P06782 1-633)”, the binding entry in test [1] is “binds”.

For the substance “VEGF-GBD (Vascular Endothelial Growth Factor fused to the GAL4 DNA-binding domain, in pASSfiI) (from UniProt P04386 1-147; P15692 32-191)”, the binding result in test [2] is recorded as “binds”.
